Results published in PubChem BioAssay AID2685 (National Center for Advancing Translational Sciences (NCATS), 2010).
The other results are listed elsewhere or left out. Shown are side measurements of this screen, not its main read-out; they come without a call. Compounds called inactive in the main read-out are mostly missing here. Potencies come from curve fits of mixed quality, noted in brackets.

Experiment: qHTS Assay for Lipid Storage Modulators in Drosophila S3 Cells;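 as to cell number change: cells counted by Cell Tracker Red CMTPX staining in the red channel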
Settings: BODIPY lipid droplet fluorescence, 18-24 h; for cell number change: measured here: cell count max response, cells fed with added oleic acid
Method in brief: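 Drosophila S3 cells got compounds at several concentrations plus oleic acid (400 uM solution). Laser-scanning cytometry with 488 nm excitation read lipid droplets at 500-530 nm and cells at 575-640 nm. Percent activity was relative to 20 uM Triacsin C.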

[1] = measured here: lipid fluorescence (Fed channel) AC50, cells fed with added oleic acid
[2] = measured here: cell number channel AC50, cells fed with added oleic acid

SMILES | cell number change [%] | AC50 [1] | AC50 [2]
C1=C(c2ccc(-c3ccccc3)cc2)Nc2ncnn2C1c1ccco1 (centres undefined) | 3.91 | 29.1 µM [rising, single point] | 
COc1ccc(C(=O)Nc2nnc(-c3ccco3)s2)cc1 | -65.1 |  | 25.9 µM [falling, single point]
Nc1cc2nc3ccccc3oc-2cc1=O | -5.95 | 25.9 µM [falling, partial curve] | 
CC1CCN(S(=O)(=O)c2ccc(Cl)cc2)CC1 | 1.78 |  | 
CC(=O)Nc1c([N+](=O)[O-])cc(C)c(Cl)c1[N+](=O)[O-] | -19 |  | 
CC(CC(=O)NC1CCCCC1)S(=O)(=O)c1ccc2c(c1)CCN2C(=O)C1CC1 (centres undefined) | -26.3 | 29.1 µM [rising, single point] | 
Cc1ccc(NC(=O)Cn2c(O)c(N=NC(N)=S)c3ccccc32)cc1 | 320 | 29.1 µM [falling, single point] | 18.4 µM [rising, partial curve]
O=C(NCc1ccco1)c1cc2sccc2n1Cc1ccc(F)cc1 | -1.51 | 10.3 µM [rising, partial curve] | 
CSc1ccc(/C=C/C(=O)OCC(=O)N(C)CCC#N)cc1 | 50.4 |  | 2.59 µM [rising, full curve]
COc1ccc(NC(=O)C(CC(C)C)NC(=O)c2ccccc2C)cn1 (centres undefined) | -18.6 | 0.146 µM [falling, full curve, poor fit] | 2.59 µM [falling, single point]
Cc1cc(C)cc(NC(=O)CSc2n[nH]c(-c3cccnc3)n2)c1 | -5.71 |  | 
O=C(O)c1cc2c(ccc3ccccc32)oc1=O | 24.6 |  | 
CCN(CC(=O)Nc1ccc(NC(C)=O)cc1)C(=O)CCN1C(=O)C2CC=CCC2C1=O (centres undefined) | 26.5 |  | 
O=C(Nc1ccc(OC(F)(F)F)cc1)c1ccc(S(=O)(=O)N2CCOCC2)o1 | 22.6 | 0.116 µM [rising, full curve, poor fit] | 
CC1CN(c2ncc(/C=N/NC(=O)c3ccccc3O)s2)CC(C)O1 (centres undefined) | -17.3 | 29.1 µM [falling, single point] | 1.46 µM [falling, partial curve, poor fit]
O=c1[nH]c(C2CCN(S(=O)(=O)c3ccc4c(c3)OCCO4)CC2)nc2c1nnn2Cc1c(F)cccc1Cl | 15.8 | 1.3 µM [rising, single point] | 
CN(C)C(CNC(=O)c1cc(S(=O)(=O)N(C)Cc2ccccc2)ccc1Cl)c1ccco1 (centres undefined) | 31.7 | 16.4 µM [rising, partial curve] | 18.4 µM [rising, single point]
CCN(CC)c1nc(-c2cccc(OC)c2O)nc2ccccc12 |  | 0.58 µM [rising, single point] | 0.58 µM [rising, single point]
CCOC(=O)c1c(NC=O)sc2c1CCC2 | 1.85 |  | 
Cc1ccc(OCC(=O)NCc2ccccn2)c(Br)c1 | -3.07 | 0.461 µM [rising, full curve, poor fit] | 
CC1=C(C)CS(=O)N(c2ccc(S(N)(=O)=O)cc2)C1 (centres undefined) | -35.1 | 16.4 µM [falling, partial curve] | 9.2 µM [falling, partial curve, poor fit]

SMILES | cell number change [%] | AC50 [1] | AC50 [2]
Cc1c(CCO)c(=O)n(C)n1C(=O)c1ccc(F)cc1 | -7.92 | 0.82 µM [rising, partial curve] | 
Cc1ccc(C2CCN(C(=O)Nc3ccccc3)C2)cc1 (centres undefined) | 3.08 | 16.4 µM [falling, single point] | 
Cc1nc2nc(CSc3ccc(Cl)cc3)cc(=O)n2[nH]1 |  | 6.51 µM [falling, single point] | 2.91 µM [falling, partial curve]
O=C(NNS(=O)(=O)c1ccc(F)cc1)C1CC(c2cccnc2)=NO1 (centres undefined) |  | 6.51 µM [falling, single point] | 
Cc1cc(C)c(C)c(S(=O)(=O)Nc2ccc3cn[nH]c3c2)c1C | -13.6 | 29.1 µM [falling, single point] | 
COc1ccccc1/C=N/NC(=O)CNC(=O)c1ccc(S(=O)(=O)N2CCCC2)cc1 | 9.11 |  | 0.58 µM [falling, single point]
Cc1cccc(C(=O)OCC(=O)N(C)C(c2ccccc2)c2ccccc2)c1[N+](=O)[O-] |  | 6.51 µM [falling, single point] | 
CN(Cc1ccc(Cl)cc1Cl)C(=O)c1cc(=O)c2ccccc2o1 | 15.4 | 4.11 µM [falling, single point] | 
O=C(N/N=C/c1ccc([N+](=O)[O-])cc1)c1cccc2cc[nH]c12 | 4.06 |  | 
c1ccc(Cn2nnc3c(N4CCCCCC4)ncnc32)cc1 |  | 20.6 µM [rising, single point] | 
Cc1cc(NC(=O)CCC(=O)N(CCC(C)C)C(C(=O)NCC2CCCO2)c2ccccc2C)no1 (centres undefined) | 20.8 |  | 
Oc1ccccc1/C=N/Nc1ccnc(SCc2ccccc2)n1 | 19.7 | 0.731 µM [falling, partial curve] | 6.51 µM [rising, single point]
CCC1(c2ccccc2)NC(=O)N(CC(=O)Nc2ccc(S(N)(=O)=O)cc2)C1=O (centres undefined) |  |  | 6.51 µM [rising, single point]
Cc1cccc(-c2nc3cc(NC(=O)C4CCCO4)ccc3o2)c1 (centres undefined) | -2.41 | 3.66 µM [rising, partial curve] | 
O=C(CCN1CCN(CC(=O)Nc2ccccc2F)CC1)Nc1ccccc1F | -34.9 |  | 0.184 µM [falling, full curve]
C=CCn1c(SCC(=O)N2CC(=O)Nc3ccccc32)nc2scc(-c3ccccc3)c2c1=O | -51.6 |  | 18.4 µM [falling, single point]
COCCn1c(=O)c2c(nc3n2CCCN3Cc2ccccc2)n(C)c1=O |  | 23.1 µM [rising, single point] | 
COc1ccccc1NC(=O)Cn1c(=O)oc2cc(S(=O)(=O)N3CCCC3)ccc21 | 15.3 |  | 
CCN1CCN(C(=S)NC(=O)/C=C/c2cccs2)CC1 | 1.22 |  | 
O=C(N/N=C/c1ccoc1)c1ccc(Br)cc1 | 0.296 | 0.355 µM [falling, full curve, poor fit] | 
Cc1ccc(NC(=O)c2nc[nH]c2C(=O)N(C)Cc2ccccc2)cc1 | -32.9 | 23.1 µM [falling, partial curve, poor fit] | 29.1 µM [falling, partial curve, poor fit]

SMILES | cell number change [%] | AC50 [1] | AC50 [2]
CCCN(C(=O)c1c(CC)noc1C)c1c(N)n(Cc2ccccc2)c(=O)[nH]c1=O | -4.75 | 0.731 µM [rising, single point] | 
Cc1cccc(-c2nc(NCCCN3CCOCC3)c3ccccc3n2)c1 | 57.5 | 6.51 µM [rising, single point] | 1.64 µM [rising, full curve, poor fit]
O=C(Nc1cccc(Cl)c1)C1CCN(C(=O)c2cccs2)CC1 | -1.26 | 20.6 µM [rising, single point] | 
Cc1ccc(OCCOCCn2cnc3ccccc3c2=O)cc1C | 31.5 | 29.1 µM [rising, single point] | 
CCOc1ccc(C(=S)NC2CCCCC2)cc1OCC | -20.4 | 29.1 µM [falling, single point] | 
CCSc1nc2ccccc2n1C(=O)/C=C/c1ccc(OC)c(OC)c1 | -55.3 | 6.51 µM [falling, full curve] | 23.1 µM [falling, partial curve]
Cc1cc(C(F)(F)F)nc2c(Cl)c(C(C)(C)C)nn12 | 13.5 | 6.51 µM [rising, single point] | 
COC(=O)c1c(NC(NC(C)=O)C(Cl)(Cl)Cl)sc2c1CCCC2 (centres undefined) | -11.1 | 1.3 µM [falling, partial curve] | 
COc1ccc(OC)c(S(=O)(=O)N2CCCC(C(=O)N3CCOCC3)C2)c1 (centres undefined) | -3.78 |  | 
CCCn1c(Sc2nnnn2-c2ccccc2)n[nH]c1=O | -2.85 | 0.82 µM [falling, single point] | 
c1ccc(COc2ccc(-c3sc(Nc4ccccc4)n[n+]3-c3ccccc3)cc2)cc1 | -34.7 |  | 29.1 µM [falling, single point]
CCc1cccc2c(C(=O)CSc3nnc(C4CC4)o3)c[nH]c12 | -6.84 | 1.3 µM [falling, full curve, poor fit] | 
O=C(Cn1[nH]c(=O)c2ccccc2c1=O)OCC(=O)c1ccccc1 | 11.8 | 16.4 µM [falling, single point] | 
CNC(=O)CN(c1cc(OCCOC)c(Cl)cc1Cl)S(=O)(=O)c1ccc(OC)cc1 | -6.65 | 3.66 µM [rising, full curve, poor fit] | 
Cc1c(NC(=S)N2CCN(c3ccc(F)cc3)CC2)c(=O)n(-c2ccccc2)n1C | -9.54 | 0.651 µM [falling, single point] | 
O=[N+]([O-])c1ccccc1NCc1c(O)ccc2ccccc12 | -51.1 | 0.206 µM [falling, full curve, poor fit] | 13 µM [falling, partial curve, poor fit]
O=C(OCc1cc(Cl)ccc1OC(F)F)c1cc(S(=O)(=O)O)ccc1O |  | 29.1 µM [falling, partial curve] | 
COc1ccc(OC)c(C2Nc3nc4ccccc4n3C(C)=C2C(=O)Nc2ccc(C)cc2C)c1 (centres undefined) | 14.4 |  | 0.651 µM [rising, partial curve]
CCCc1[nH]nc2c1C(c1c(C)nn(-c3ccccc3)c1Cl)C(C#N)=C(N)O2 (centres undefined) |  | 2.91 µM [rising, single point] | 

Just cell number change [%], for some of the entries so far:
SMILES,cell number change [%]
CNC(=O)CN(c1cc(OCCOC)c(Cl)cc1Cl)S(=O)(=O)c1ccc(OC)cc1,-6.65
Cc1c(NC(=S)N2CCN(c3ccc(F)cc3)CC2)c(=O)n(-c2ccccc2)n1C,-9.54
